In the supplement of paper PMC12823440, “Inhibitors supercharge kinase turnover through native proteolytic circuits” (Nature, 2025):
The other results are listed elsewhere or left out. Hit calls seldom repeat between salt and free forms of one compound.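 In K562 cells expressing nanoluciferase-fused kinases, luminescence was recorded at 4 h intervals between 2 and 18 h, normalized as percent of control with DMSO at 100% and a positive control at 0%. A significant (2 sigma) signal drop marks a time point as decreased. The authors' rule for a hit is not shown and takes in more than the number of time points.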

Chains of the proteins cited; added tags and fusions are not shown.
UniProt P29317, whole entry: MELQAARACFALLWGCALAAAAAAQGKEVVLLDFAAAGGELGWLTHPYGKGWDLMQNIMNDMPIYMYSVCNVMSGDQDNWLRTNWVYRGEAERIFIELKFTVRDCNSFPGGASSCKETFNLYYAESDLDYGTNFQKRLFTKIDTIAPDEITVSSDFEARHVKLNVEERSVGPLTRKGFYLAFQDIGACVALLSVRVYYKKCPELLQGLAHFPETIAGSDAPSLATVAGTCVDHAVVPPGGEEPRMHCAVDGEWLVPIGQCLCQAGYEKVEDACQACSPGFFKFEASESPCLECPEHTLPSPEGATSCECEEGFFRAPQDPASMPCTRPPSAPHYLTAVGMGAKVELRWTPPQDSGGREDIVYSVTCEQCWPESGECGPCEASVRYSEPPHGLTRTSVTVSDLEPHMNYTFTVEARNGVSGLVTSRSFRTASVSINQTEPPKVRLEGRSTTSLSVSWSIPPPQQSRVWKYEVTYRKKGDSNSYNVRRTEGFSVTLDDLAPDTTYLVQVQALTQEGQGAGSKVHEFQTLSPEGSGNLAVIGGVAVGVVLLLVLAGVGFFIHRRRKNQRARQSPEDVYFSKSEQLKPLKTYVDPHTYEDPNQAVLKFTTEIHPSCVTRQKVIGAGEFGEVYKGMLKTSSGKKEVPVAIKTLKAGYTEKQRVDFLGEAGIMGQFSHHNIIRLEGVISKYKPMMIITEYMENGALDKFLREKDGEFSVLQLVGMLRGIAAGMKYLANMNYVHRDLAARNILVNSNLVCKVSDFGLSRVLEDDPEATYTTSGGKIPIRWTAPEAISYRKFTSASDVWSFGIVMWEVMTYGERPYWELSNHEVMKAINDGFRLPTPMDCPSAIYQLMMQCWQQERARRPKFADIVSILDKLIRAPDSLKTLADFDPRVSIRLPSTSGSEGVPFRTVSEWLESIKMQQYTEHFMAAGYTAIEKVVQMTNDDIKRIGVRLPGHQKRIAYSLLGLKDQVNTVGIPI
UniProt P21860, whole entry: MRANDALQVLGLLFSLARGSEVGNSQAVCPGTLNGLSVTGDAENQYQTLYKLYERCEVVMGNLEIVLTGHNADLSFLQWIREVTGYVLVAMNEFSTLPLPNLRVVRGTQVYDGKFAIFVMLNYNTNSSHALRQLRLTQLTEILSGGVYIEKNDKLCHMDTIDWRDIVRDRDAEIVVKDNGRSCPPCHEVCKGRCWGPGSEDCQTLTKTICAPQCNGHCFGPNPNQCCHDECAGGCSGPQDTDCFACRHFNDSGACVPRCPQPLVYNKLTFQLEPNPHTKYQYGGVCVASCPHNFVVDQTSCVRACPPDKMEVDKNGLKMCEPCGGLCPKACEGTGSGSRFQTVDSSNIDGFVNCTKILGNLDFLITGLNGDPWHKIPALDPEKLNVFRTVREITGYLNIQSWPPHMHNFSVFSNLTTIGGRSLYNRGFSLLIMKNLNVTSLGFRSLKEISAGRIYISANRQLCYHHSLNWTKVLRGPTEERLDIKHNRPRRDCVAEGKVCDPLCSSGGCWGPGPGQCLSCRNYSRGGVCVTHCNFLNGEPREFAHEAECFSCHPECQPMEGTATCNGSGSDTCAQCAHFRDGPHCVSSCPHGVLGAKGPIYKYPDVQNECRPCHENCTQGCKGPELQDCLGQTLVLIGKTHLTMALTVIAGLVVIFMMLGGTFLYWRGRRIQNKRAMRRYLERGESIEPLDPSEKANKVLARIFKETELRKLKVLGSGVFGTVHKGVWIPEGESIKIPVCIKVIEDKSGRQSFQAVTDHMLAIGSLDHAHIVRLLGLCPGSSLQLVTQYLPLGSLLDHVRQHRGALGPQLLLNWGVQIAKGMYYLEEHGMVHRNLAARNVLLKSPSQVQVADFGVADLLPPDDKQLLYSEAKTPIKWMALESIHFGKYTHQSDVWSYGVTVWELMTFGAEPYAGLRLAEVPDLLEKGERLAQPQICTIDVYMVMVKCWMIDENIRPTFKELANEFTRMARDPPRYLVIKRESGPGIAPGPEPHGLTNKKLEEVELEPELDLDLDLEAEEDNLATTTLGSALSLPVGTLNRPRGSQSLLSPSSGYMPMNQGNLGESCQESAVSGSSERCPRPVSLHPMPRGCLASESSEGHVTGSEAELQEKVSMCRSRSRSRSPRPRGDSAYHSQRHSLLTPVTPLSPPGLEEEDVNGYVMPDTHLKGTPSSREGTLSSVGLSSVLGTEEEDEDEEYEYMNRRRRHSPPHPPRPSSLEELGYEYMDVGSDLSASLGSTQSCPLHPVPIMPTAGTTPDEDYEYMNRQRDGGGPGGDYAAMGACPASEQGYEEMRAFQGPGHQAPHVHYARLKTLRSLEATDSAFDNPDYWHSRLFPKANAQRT
UniProt Q15303, whole entry R711C: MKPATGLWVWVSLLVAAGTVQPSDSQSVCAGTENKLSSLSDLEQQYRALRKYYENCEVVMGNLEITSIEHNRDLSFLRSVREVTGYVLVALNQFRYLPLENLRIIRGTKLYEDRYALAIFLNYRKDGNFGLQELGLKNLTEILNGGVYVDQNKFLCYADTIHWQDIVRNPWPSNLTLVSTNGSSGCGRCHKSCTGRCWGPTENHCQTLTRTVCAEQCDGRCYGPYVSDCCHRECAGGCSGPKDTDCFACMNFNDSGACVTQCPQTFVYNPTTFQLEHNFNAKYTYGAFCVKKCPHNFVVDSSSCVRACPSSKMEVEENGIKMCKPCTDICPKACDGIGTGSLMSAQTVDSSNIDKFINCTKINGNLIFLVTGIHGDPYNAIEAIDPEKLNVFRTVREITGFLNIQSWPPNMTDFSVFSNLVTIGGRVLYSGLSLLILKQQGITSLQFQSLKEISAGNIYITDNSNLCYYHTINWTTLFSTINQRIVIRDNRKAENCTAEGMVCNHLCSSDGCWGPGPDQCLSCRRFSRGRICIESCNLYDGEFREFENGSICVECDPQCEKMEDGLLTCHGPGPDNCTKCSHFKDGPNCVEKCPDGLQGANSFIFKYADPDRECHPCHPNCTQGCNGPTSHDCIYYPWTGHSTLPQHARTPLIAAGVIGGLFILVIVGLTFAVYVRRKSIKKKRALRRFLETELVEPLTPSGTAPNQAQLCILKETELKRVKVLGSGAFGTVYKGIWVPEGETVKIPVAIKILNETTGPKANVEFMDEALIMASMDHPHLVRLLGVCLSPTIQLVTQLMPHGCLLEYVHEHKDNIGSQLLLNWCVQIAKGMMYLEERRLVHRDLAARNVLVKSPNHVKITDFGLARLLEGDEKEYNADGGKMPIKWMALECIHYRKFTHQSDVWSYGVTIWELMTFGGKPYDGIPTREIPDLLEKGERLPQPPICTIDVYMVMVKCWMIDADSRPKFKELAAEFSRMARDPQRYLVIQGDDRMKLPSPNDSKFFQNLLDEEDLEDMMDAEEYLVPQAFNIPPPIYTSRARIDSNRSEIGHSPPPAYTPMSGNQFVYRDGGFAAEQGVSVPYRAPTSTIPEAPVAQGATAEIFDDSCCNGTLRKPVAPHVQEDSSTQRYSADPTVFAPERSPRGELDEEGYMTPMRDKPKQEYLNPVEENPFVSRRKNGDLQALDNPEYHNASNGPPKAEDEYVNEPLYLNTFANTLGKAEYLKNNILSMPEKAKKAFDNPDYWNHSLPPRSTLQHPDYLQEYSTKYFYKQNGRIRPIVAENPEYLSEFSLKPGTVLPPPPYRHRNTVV

What was measured:
Test in all cases: kinase-Nluc reporter destabilization hit call (1 = scored as downregulated) (binary); higher = compound decreases kinase abundance
Conditions in all cases: K562; 2-18 h
EGFR = EGFR (UniProt P00533)
EGFR_G719S = EGFR_G719S (UniProt P00533)
EGFR_G719S_T790M = EGFR_G719S_T790M (UniProt P00533)
EGFR_L718V = EGFR_L718V (UniProt P00533)
EGFR_L858R = EGFR_L858R (UniProt P00533)
EGFR_L861Q = EGFR_L861Q (UniProt P00533)
EGFR_T790M = EGFR_T790M (UniProt P00533)
EPHA2 = EPHA2 (UniProt P29317)
ERBB3 = ERBB3 (UniProt P21860)
[1] = target: ERBB4_R711C (clone: ERBB4_mut) (UniProt Q15303)

Measured: kinase-Nluc reporter destabilization hit call

CNC(=O)c1ccc2c(C(=Nc3cccc(CN(C)C)c3)c3ccccc3)c(O)[nH]c2c1 [MEK inhibitor] (10 µM)
inactive: EGFR 0 | EGFR_G719S 0 | EGFR_G719S_T790M 0 | EGFR_L718V 0 | EGFR_L858R 0 | EGFR_L861Q 0 | EGFR_T790M 0 | EPHA2 = 0 | ERBB3 = 0 | [1] 0

O=C(Nc1cccnc1)c1cc(-c2ccnc(F)c2)ccc1OCc1ccccc1 (10 µM)
inactive: EGFR 0 | EGFR_G719S 0 | EGFR_G719S_T790M 0 | EGFR_L718V 0 | EGFR_L858R 0 | EGFR_L861Q 0 | EGFR_T790M 0 | EPHA2 = 0 | ERBB3 = 0 | [1] 0

O=C1Nc2ccc(CN3C(=O)CSC3=O)cc2/C1=C/c1cc(CN2CCOCC2)c[nH]1 (10 µM)
inactive: EGFR 0 | EGFR_G719S 0 | EGFR_G719S_T790M 0 | EGFR_L718V 0 | EGFR_L858R 0 | EGFR_L861Q 0 | EGFR_T790M 0 | EPHA2 = 0 | ERBB3 = 0 | [1] 0

C#Cc1cccc(Nc2ncnc3cc(OC)c(NC(=O)N4C[C@H]5CCN(C)[C@H]5C4)cc23)c1 [Theliatinib] (10 µM)
inactive: EGFR 0 | EGFR_G719S 0 | EGFR_G719S_T790M 0 | EGFR_L718V 0 | EGFR_L858R 0 | EGFR_L861Q 0 | EGFR_T790M 0 | EPHA2 = 0 | ERBB3 = 0 | [1] 0

CCCCCC(=O)N[C@@H](Cc1ccc(O)cc1)C(=O)OC (10 µM)
inactive: EGFR 0 | EGFR_G719S 0 | EGFR_G719S_T790M 0 | EGFR_L718V 0 | EGFR_L858R 0 | EGFR_L861Q 0 | EGFR_T790M 0 | EPHA2 = 0 | ERBB3 = 0 | [1] 0

NC[C@@](O)(c1ccc(Cl)cc1)c1ccc(-c2cn[nH]c2)cc1 (10 µM)
inactive: EGFR 0 | EGFR_G719S 0 | EGFR_G719S_T790M 0 | EGFR_L718V 0 | EGFR_L858R 0 | EGFR_L861Q 0 | EGFR_T790M 0 | EPHA2 = 0 | ERBB3 = 0 | [1] 0

COCCOc1ccc2c(c1)ncn2-c1ccc2cccc(N3CCC(N)CC3)c2n1 (10 µM)
inactive: EGFR 0 | EGFR_G719S 0 | EGFR_G719S_T790M 0 | EGFR_L718V 0 | EGFR_L858R 0 | EGFR_L861Q 0 | EGFR_T790M 0 | EPHA2 = 0 | ERBB3 = 0 | [1] 0

COc1ccc(Nc2ncc(C(F)(F)F)c(NC3CC3)n2)cc1OC (10 µM)
inactive: EGFR 0 | EGFR_G719S 0 | EGFR_G719S_T790M 0 | EGFR_L718V 0 | EGFR_L858R 0 | EGFR_L861Q 0 | EGFR_T790M 0 | EPHA2 = 0 | ERBB3 = 0 | [1] 0

CC(C)CCN1c2nc(Nc3cc(F)c(O)c(F)c3)ncc2N(C)C(=O)C1C (stereo not given) (2.5 µM)
inactive: EGFR 0 | EGFR_G719S 0 | EGFR_G719S_T790M 0 | EGFR_L718V 0 | EGFR_L858R 0 | EGFR_L861Q 0 | EGFR_T790M 0 | EPHA2 = 0 | ERBB3 = 0 | [1] 0
